Library screening results

From ChEMBL document CHEMBL3988442, “University of Dundee, Small-Polar-MMV Screening Library” (2021).

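Viability assay of Plasmodium falciparum sporozoites; the read-out is not stated. The concentration is filed as 10 mM, unlikely as a test dose, so the dose is not known. The record gives no direction; compounds that gave an IC50 in retests scored well above the rest, so higher reads as lower viability. Strong results were mostly tested again. Of about 34,000 compounds tested this way, about 280 (0.84%) reached 50% or more in at least one test.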

The filed quantity is “Percent Effect” (%).
The controls that fix the scale are not given in the record; negative values are as filed.
Compounds were drawn at random from those tested, without regard to their results.
Two or more numbers in one place are separate tests of the same structure; such repeats can differ widely.

Result for Cc1ccc(N2CCC3(CN(Cc4cccs4)CCC3(F)F)C2)nn1.O=C(O)C(F)(F)F (centres unmarked) was -8.666%. With CC(=O)Nc1nc(C)c(S(=O)(=O)NCCc2ccccn2)s1 the screen gave -10.58%. Result for Cc1nn(C)c(C)c1C1CCCN1Cc1cccc(C(N)=O)c1 (centres unmarked) was -10.12%. With Cc1nc(N(C)C)ncc1C(=O)NCCc1csc(-c2cnccn2)n1 the screen gave 4.459%. CCOC(=O)CCC(=O)NC(C)c1ccc(NC(=O)CC)cc1 (centres unmarked) read -12.06%. COc1c(C(=O)N2CCC(COCc3ccccc3)C2)c(C)nn1C (centres unmarked) gave -10.77%.

With O=C(c1ccno1)N1CCC2(CC1)C(=O)N(CC1CC1)c1ccccc12 the screen gave 3.648%. For COC(=O)CC(NC(=O)c1ccccc1OC)c1cccs1 (centres unmarked) the result was 9.69%. For O=C(CCn1ccc2ccc(Br)cc21)/N=c1\[nH]nc(C2CCCO2)s1 (centres unmarked) the result was 1.74%. With CCc1nc(CN(C)C2CCN(CCCOc3ccccc3)C2)no1 (centres unmarked) the screen gave -3.511%. CC(C)OCCCN(Cc1ccncc1)Cc1cc(F)ccc1F.Cl gave 16.7%. For OC1CCN(c2ccccc2NCc2nc(-c3ccoc3)no2)CC1 the result was -6.625% and 26.64% and -11.02%.

O=C(COC1CCCC1)NS(=O)(=O)c1ccc2c(c1)OCCCO2 gave -7.81%. With CCNC(=O)Nc1ccc(N2CCC(OC)CC2)c(C(F)(F)F)c1 the screen gave -28.42%. [H][C@@]12CCN(C(=O)NC3CC3)[C@]1([H])CCC(=O)N2Cc1csc(C)n1 read -1.143%. [H][C@@]12CCCO[C@]1([H])[C@@H](OCc1cccnc1)CN2c1cc(OC)ncn1 read -16.21%. Cc1cnn(CC2CCCN2C(=O)CCc2c(C)nn(C)c2C)c1 (centres unmarked) gave -16.03%. Result for CCCc1nc(C)c(C(=O)NCCNc2ncccn2)s1 was 2.424%.

For N#CCCN(CCC#N)C(=O)CN1CCCC1Cc1cccc(F)c1 (centres unmarked) the result was 4.51%. With CCNC(=O)C1(CC2CC(c3ccccc3OC)=NO2)CCOCC1 (centres unmarked) the screen gave 13.14%. CCOCCn1c(=O)[nH]c2cc(C(=O)N(C)Cc3cc(C)[nH]n3)ccc21 read -3.727%. Result for CCC(C)NC(=O)c1cc(Br)c2c(c1)OCCO2 (centres unmarked) was -3.221%. For CNS(=O)(=O)c1ccc(C(=O)N2CCCC2c2ccccc2C)o1 (centres unmarked) the result was -3.764%. For O=C1C(NCc2nnc3n2CCCC3)CCCN1c1cccc(F)c1 (centres unmarked) the result was 8.213%.

Cc1nn(C)c(C)c1C1CCCN1C(=O)CCNS(C)(=O)=O (centres unmarked) read 6.103%. CCCNC(=O)C(C)N1CCC(C(=O)Nc2cnn(CC)c2)CC1 (centres unmarked) read 2.314%. CC(C)(C)NC(=O)CNc1ccc(Br)cn1 gave -10.64%. For CCn1nc(C)c2ncnc(NCCCN3CCOCC3)c21 the result was -8.772%. With CCC(C)NC(=O)Nc1ccc(CN2CCOC2=O)cc1 (centres unmarked) the screen gave 0.4479%. O=C1CN(c2ccc(CNC(=O)NCCO)cc2)CCN1 gave 1.887%.

O=S1(=O)CCCN1Cc1coc(-c2cccs2)n1 read 11.42%. With O=C(CCCNCc1ccccc1)N1CCCn2cncc2C1 the screen gave -19.85%. CNC(=O)c1nc2c(s1)CCN(C(=O)Cc1ccc(OC)cc1)CC2 read 11.66%. For O=C(Cn1cc(C2CC2)nn1)N(Cc1cccs1)CC1CCCO1 (centres unmarked) the result was -4.824%. With O=S1(=O)CCN(c2nc(C3CC3)ns2)CC1 the screen gave 37.31% and 27.92%. Cc1ccc(OC2(C(=O)O)CCN(C(=O)c3ccc(F)cc3)CC2)cn1 gave -11.12%.

CC(C)CCC(=O)NC(C)c1nnc2n1CCCCC2 (centres unmarked) read -15.29%. With O=C(O)C(F)(F)F.[H][C@]12CCC[C@@]1(COCC(=O)N1CCCC1)CN(C1CCC1)C2 the screen gave -4.295%. N#Cc1cccc(S(=O)(=O)NC(=O)COCC(F)(F)F)c1 gave 1.221%. For COC(=O)C(C)NC(=O)CSCc1nc(O)c2cc(C(C)C)sc2n1 (centres unmarked) the result was 6.199% and -4.697%.

3 of the entries, repeated:

structure,percent effect
O=S1(=O)CCCN1Cc1coc(-c2cccs2)n1,11.42
O=C(CCn1ccc2ccc(Br)cc21)/N=c1\[nH]nc(C2CCCO2)s1 (centres unmarked),1.74
CC(C)OCCCN(Cc1ccncc1)Cc1cc(F)ccc1F.Cl,16.7